Our source for the binding values is patent US20230302124A1.

Results are given in words; binding and its absence hold for the method and conditions named. Some binding calls cover weakened binding; strength is not graded here.

Assay [1] has as its target T1, CsoS4A-SII (Halothiobacillus neapolitanus).
T1 sequence: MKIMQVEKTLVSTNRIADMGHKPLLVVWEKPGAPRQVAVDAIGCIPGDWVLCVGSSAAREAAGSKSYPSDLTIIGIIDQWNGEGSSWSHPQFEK
Kind of assay: co-expression in E. coli, Strep-Tactin purification through CsoS4A-SII, anion exchange, TEM.

Assay [2] shares this target. As to the kind of experiment: cryo-EM model of the purified shells.

B1: CsoS1A (protein)
chain: MADVTGIALGMIETRGLVPAIEAADAMTKAAEVRLVGRQFVGGGYVTVLVRGETGAVNAAVRAGADACERVGDGLVAAHIIARVHSEVENILPKAPQA
Turning to B1, the binding entry in assay [1] and in assay [2] was “binds” throughout.
